# Measurements published in PMC4954726.
# Sequences of proteins named here, by UniProt entry; tags and fusion partners are left off. A change or cut given only in a name is not applied to a line headed by its entry.
# UniProt A8B515: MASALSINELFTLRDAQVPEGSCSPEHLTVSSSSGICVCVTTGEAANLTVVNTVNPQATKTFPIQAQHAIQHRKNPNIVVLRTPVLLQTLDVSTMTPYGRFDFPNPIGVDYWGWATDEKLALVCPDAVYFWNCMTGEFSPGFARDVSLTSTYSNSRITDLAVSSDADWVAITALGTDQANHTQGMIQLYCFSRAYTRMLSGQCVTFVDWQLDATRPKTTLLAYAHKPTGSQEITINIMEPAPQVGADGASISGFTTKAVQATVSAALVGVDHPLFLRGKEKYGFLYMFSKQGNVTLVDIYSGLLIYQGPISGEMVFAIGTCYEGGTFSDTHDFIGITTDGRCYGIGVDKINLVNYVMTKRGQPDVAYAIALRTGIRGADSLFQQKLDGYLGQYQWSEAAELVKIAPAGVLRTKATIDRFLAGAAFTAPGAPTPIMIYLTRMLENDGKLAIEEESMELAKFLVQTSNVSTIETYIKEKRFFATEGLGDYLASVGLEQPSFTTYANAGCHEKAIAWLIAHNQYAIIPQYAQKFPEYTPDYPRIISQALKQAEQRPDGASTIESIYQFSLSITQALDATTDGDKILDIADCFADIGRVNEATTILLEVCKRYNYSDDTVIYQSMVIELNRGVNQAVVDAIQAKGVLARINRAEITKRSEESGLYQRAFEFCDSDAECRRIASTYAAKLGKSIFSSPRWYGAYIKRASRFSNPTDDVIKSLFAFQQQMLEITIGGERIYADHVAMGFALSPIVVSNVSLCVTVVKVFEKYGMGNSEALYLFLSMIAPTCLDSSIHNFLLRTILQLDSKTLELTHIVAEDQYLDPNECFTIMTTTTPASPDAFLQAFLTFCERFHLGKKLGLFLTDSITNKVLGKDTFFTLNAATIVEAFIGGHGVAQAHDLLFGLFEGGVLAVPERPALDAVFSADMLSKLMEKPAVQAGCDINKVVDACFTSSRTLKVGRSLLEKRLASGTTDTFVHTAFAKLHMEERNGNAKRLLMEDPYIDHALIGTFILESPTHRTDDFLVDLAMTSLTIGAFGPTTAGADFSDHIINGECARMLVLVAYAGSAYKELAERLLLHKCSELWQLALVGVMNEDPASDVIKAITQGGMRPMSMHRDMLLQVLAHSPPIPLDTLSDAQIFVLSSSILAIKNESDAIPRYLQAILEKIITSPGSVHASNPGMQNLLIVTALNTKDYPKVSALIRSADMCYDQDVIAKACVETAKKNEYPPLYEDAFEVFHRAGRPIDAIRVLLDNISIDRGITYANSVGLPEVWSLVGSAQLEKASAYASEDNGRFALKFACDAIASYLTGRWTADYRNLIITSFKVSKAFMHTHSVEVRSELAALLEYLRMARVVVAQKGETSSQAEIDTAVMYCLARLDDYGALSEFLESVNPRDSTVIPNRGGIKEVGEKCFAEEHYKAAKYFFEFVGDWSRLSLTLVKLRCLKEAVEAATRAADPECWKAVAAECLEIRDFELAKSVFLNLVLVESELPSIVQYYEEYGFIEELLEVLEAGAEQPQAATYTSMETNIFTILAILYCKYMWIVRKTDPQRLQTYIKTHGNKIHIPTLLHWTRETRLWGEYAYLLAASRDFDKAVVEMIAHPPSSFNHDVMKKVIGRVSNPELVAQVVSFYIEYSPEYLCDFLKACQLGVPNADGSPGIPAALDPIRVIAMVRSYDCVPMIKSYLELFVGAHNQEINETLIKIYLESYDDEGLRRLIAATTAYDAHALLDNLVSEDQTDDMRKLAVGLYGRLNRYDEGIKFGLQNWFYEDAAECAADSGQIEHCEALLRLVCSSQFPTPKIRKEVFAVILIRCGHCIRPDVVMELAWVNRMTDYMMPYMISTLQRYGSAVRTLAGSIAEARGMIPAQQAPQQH
# UniProt A8B9U8: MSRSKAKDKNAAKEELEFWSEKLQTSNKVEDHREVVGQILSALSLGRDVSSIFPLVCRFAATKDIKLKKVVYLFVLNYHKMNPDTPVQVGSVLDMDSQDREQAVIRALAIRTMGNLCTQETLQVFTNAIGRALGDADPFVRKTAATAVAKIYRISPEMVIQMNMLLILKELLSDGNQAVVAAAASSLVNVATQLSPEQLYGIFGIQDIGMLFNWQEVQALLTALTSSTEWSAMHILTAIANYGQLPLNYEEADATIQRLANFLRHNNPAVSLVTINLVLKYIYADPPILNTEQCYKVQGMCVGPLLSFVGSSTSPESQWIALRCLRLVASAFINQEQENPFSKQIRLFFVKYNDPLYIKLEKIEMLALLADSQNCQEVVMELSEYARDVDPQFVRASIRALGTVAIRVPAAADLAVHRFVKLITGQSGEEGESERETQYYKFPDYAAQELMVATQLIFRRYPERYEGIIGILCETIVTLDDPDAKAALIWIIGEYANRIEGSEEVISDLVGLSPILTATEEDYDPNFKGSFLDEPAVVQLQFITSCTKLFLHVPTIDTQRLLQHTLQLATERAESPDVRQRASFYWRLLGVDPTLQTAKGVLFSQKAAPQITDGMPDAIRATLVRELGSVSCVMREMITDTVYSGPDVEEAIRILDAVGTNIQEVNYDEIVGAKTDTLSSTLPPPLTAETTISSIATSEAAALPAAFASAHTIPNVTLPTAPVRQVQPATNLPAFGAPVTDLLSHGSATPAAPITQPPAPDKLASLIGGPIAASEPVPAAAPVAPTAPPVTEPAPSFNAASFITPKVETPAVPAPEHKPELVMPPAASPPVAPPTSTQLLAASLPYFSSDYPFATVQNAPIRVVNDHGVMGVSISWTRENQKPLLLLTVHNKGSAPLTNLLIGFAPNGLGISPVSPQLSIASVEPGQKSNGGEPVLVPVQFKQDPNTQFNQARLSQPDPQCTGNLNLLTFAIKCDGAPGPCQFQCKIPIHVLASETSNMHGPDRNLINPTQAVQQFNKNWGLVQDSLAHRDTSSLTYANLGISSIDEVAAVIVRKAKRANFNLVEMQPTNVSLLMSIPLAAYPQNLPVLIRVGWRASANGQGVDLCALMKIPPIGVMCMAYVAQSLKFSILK
# UniProt A8B343: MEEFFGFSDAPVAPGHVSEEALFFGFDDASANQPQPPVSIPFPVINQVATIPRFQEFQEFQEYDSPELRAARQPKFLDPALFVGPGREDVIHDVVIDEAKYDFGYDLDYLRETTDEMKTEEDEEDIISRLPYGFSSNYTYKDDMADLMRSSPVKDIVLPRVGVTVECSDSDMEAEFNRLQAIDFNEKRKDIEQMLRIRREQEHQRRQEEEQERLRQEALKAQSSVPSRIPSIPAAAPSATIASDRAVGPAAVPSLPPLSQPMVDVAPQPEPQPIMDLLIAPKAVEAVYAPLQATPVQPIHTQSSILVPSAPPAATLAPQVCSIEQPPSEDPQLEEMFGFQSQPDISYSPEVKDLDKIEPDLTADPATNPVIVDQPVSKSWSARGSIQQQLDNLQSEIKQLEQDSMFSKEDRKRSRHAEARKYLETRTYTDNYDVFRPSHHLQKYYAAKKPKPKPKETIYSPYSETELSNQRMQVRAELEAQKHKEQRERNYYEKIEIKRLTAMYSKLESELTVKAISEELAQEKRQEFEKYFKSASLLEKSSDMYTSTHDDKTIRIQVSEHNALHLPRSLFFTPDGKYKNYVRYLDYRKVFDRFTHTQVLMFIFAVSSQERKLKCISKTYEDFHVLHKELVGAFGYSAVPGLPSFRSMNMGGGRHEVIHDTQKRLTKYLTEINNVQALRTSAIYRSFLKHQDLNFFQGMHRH
# UniProt A8BHA7: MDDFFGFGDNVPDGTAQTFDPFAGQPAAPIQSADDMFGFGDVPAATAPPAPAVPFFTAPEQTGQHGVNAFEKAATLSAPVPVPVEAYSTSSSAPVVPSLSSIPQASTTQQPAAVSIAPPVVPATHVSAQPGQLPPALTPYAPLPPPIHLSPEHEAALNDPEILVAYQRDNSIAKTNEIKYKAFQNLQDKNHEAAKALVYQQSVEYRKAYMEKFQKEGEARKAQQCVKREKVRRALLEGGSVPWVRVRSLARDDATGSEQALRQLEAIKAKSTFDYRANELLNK
# UniProt A8BAR6: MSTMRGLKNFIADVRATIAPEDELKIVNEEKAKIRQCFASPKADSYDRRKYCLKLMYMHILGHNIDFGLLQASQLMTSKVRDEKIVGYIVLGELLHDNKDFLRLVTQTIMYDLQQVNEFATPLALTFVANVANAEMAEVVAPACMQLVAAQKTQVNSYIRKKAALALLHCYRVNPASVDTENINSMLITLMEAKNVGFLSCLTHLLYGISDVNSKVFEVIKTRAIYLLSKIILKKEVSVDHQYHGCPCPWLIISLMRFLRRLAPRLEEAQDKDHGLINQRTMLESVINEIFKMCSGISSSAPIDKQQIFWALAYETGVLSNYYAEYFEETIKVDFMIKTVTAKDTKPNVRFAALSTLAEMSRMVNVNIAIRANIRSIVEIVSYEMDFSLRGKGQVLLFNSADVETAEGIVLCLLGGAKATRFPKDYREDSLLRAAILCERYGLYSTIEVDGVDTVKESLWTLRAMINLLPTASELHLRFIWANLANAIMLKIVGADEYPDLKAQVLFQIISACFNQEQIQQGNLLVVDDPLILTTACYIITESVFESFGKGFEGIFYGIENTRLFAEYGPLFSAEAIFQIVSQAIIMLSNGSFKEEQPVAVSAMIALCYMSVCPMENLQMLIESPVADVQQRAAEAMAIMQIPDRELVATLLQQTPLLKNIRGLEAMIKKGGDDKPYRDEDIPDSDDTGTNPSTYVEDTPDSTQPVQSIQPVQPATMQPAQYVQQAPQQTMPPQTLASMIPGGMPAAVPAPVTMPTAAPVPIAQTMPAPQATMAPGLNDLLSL
# UniProt E2RU04: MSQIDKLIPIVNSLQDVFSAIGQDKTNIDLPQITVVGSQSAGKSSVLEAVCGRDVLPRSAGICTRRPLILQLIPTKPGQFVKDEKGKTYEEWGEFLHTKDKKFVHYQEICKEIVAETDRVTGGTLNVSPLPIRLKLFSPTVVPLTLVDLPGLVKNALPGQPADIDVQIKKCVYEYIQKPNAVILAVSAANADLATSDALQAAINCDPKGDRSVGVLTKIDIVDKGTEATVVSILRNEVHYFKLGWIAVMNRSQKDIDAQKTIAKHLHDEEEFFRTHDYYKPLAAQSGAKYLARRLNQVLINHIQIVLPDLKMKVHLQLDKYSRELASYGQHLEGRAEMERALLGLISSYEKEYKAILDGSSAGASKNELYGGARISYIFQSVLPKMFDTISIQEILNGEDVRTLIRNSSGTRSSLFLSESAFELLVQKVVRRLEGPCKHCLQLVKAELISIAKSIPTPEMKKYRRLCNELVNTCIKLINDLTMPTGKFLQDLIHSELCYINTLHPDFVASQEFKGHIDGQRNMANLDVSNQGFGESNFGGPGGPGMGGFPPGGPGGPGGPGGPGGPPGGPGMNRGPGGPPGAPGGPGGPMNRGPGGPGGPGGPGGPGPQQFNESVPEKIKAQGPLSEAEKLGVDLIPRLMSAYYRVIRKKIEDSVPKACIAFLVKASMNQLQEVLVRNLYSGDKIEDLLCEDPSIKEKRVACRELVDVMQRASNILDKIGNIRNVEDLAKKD
# UniProt A8BH24: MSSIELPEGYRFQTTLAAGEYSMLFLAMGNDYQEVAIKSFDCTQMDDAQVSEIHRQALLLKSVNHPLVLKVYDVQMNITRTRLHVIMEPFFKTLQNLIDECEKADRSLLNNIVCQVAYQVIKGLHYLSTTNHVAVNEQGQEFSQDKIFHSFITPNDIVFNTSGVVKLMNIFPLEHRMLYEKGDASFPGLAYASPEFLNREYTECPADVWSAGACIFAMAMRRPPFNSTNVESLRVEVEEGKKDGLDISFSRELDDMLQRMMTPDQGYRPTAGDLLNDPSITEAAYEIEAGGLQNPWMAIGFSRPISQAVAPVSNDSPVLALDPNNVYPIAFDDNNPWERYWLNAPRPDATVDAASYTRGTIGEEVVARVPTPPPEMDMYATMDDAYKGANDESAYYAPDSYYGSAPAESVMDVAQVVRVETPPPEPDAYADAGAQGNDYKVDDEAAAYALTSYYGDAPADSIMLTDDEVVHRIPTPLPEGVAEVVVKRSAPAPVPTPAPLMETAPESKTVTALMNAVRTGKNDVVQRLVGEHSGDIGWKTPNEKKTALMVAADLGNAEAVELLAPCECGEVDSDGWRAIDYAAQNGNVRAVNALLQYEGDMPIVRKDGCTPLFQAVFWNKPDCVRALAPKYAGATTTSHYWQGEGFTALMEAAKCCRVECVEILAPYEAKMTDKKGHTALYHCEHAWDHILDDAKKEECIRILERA
# UniProt P51775: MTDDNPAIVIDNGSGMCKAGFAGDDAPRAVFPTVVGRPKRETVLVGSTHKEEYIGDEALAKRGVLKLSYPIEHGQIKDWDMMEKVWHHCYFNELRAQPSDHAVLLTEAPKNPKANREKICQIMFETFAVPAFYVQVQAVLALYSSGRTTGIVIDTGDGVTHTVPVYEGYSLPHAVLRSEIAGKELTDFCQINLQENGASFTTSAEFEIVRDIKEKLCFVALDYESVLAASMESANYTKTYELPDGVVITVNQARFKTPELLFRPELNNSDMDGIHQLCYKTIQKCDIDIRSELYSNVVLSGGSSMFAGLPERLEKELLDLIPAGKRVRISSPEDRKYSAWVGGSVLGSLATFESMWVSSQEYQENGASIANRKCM
# Tests used:
# [1] = molecular target: Giardia lamblia clathrin heavy chain (Giardia lamblia WBC6 (ATCC 50803)) (UniProt A8B515); experiment: affinity purification with mass spectrometry; co-IP with limited cross-linking: 10^9 trophozoites in 0.4mM DSP in PBS, 30 minutes at RT, quenched with glycine, sonicated; soluble fraction with 1% TX-100 on anti-HA agarose beads 2h at 4°C; cross-links reversed with DTT; SDS-PAGE, LC-MS/MS; HA-tagged baits (GlCHC and 8 reverse baits); non-transgenic WB parasites as control
# [2] = molecular target: Gl16595, PX domain protein (Giardia lamblia WBC6 (ATCC 50803)) (UniProt A8B344); experiment: as above
# [3] = molecular target: Giardia lamblia AP2 beta subunit (Giardia lamblia WBC6 (ATCC 50803)) (UniProt A8B9U8); experiment: as above
# [4] = molecular target: Gl16653, FYVE domain protein (Giardia lamblia WBC6 (ATCC 50803)) (UniProt A8BDZ8); experiment: as above
# [5] = molecular target: Gl7723, PX domain protein (Giardia lamblia WBC6 (ATCC 50803)) (UniProt A8B343); experiment: as above
# [6] = molecular target: Gl4259, putative clathrin light chain (Giardia lamblia WBC6 (ATCC 50803)) (UniProt A8BHA7); experiment: as above
# [7] = molecular target: Giardia lamblia AP2 alpha subunit (Giardia lamblia WBC6 (ATCC 50803)) (UniProt A8BAR6); experiment: as above
# [8] = molecular target: Giardia dynamin related protein (Giardia lamblia WBC6 (ATCC 50803)) (UniProt E2RU04); experiment: as above
# [9] = molecular target: Giardia lamblia clathrin heavy chain (Giardia lamblia WBC6 (ATCC 50803)) (UniProt A8B515); experiment: condition: only native co-IP, without DSP cross-linking; affinity purification with mass spectrometry; native co-IP (no cross-linker) with GlCHC-HA as bait from transgenic trophozoites; LC-MS/MS, high stringency parameters; untransfected line as control
# [10] = molecular target: Giardia lamblia clathrin heavy chain (Giardia lamblia WBC6 (ATCC 50803)) (UniProt A8B515); experiment: affinity purification with mass spectrometry; native co-IP (no cross-linker) with GlCHC-HA as bait from transgenic trophozoites; LC-MS/MS, high stringency parameters; untransfected line as control
# [11] = molecular target: Gl15411, predicted metabolically inactive NEK kinase (Giardia lamblia WBC6 (ATCC 50803)) (UniProt A8BH24); experiment: affinity purification with mass spectrometry; co-IP with limited cross-linking: 10^9 trophozoites in 0.4mM DSP in PBS, 30 minutes at RT, quenched with glycine, sonicated; soluble fraction with 1% TX-100 on anti-HA agarose beads 2h at 4°C; cross-links reversed with DTT; SDS-PAGE, LC-MS/MS; HA-tagged baits (GlCHC and 8 reverse baits); non-transgenic WB parasites as control
Substance,binding [1],binding [2],binding [4],binding [5],binding [6],binding [8],binding [9],also measured
Giardia lamblia clathrin heavy chain (from UniProt A8B515),–,binds,binds,binds,binds,binds,–,binding [3]: binds; binding [7]: binds
Giardia dynamin related protein (from UniProt E2RU04),binds,–,–,–,binds,–,no binding,–
"Gl4259, putative clathrin light chain (from UniProt A8BHA7)",binds,–,–,–,–,–,–,binding [10]: binds
Giardia lamblia AP2 alpha subunit (from UniProt A8BAR6),binds,binds,binds,binds,binds,binds,no binding,binding [3]: binds; binding [11]: binds
Giardia lamblia AP2 beta subunit (from UniProt A8B9U8),binds,binds,binds,binds,binds,binds,no binding,binding [11]: binds
actin (from UniProt P51775 1-375),no binding,–,–,–,–,–,–,–

# The next lines start with results.
binding [1],binding [2],binding [4],binding [5],binding [6],binding [8],binding [9],Substance,also measured
binds,–,–,–,–,–,–,"Gl16653, FYVE domain protein (from UniProt A8BDZ8)",–
binds,–,–,–,–,–,–,"Gl16595, PX domain protein (from UniProt A8B344)",–
binds,–,–,–,–,–,–,"Gl7723, PX domain protein (from UniProt A8B343)",–

# These are yes or no findings as the source states them, for the method shown. Binding seen in cells or lysates may run through a third protein. A yes stands for co-enrichment or nearness to the bait. Other partners may have been found. For part of these data: No binding means not detected with the bait.
